From BindingDB's records for doi:10.1016/j.chembiol.2011.01.012 (University of Luxembourg, 2011) come the findings set out here.

Amino acid sequences for entries named in this document (tags omitted). A change or cut given only in a name is not applied to a line headed by its entry.
UniProt O60674: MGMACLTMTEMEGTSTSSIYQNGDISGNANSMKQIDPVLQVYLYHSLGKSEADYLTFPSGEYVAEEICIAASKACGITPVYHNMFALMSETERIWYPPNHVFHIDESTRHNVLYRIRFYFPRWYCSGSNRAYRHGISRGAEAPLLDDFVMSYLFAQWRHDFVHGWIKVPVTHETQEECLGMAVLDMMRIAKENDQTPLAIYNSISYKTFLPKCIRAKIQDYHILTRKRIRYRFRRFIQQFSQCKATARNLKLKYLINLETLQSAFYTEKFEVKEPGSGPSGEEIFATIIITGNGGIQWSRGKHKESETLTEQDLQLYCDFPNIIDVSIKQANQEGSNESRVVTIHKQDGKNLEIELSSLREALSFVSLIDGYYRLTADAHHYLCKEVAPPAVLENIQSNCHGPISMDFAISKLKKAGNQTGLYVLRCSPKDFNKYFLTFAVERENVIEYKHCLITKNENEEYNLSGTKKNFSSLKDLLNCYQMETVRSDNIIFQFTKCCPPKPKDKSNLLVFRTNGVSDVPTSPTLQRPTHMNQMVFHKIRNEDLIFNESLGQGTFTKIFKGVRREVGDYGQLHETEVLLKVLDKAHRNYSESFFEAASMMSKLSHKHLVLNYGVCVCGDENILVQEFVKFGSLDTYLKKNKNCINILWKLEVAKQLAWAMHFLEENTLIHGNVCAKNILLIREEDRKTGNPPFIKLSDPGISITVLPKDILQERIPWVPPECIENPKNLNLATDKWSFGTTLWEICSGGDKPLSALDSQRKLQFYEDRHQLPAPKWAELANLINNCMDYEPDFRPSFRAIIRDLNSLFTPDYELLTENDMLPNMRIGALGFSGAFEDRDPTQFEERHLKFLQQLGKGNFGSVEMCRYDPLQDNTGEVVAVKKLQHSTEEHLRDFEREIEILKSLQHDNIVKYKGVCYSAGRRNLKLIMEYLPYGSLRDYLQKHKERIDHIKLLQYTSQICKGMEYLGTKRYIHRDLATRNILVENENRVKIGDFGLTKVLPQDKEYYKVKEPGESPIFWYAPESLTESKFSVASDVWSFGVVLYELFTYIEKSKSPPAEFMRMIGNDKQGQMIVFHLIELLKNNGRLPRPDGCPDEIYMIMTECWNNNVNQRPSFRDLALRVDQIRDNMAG

The target in the assay is Tyrosine-protein kinase JAK2 (Homo sapiens, UniProt O60674). Description: Enzyme Assay. To be noted: pH 7.5; 30 °C.

The term IC50 denotes the concentration that inhibits the measured activity by half. A higher IC50 goes with weaker potency in that assay. `CC(C)(O)C(=O)N1CCN(c2ccc(C(F)(F)F)c(C3=C(c4c[nH]c5ccccc45)C(=O)NC3=O)c2)CC1` [NIBR3049]: the IC50 was found to be 2550 nM.
